Measurements from the supplement of paper PMC12067093, “Discovery and optimisation of a covalent ligand for TRIM25 and its application to targeted protein ubiquitination” (Chemical Science, 2025).
The other results are listed elsewhere or left out.

Protein sequences, listed by entry. Tags and fused reporters are not part of them. Lines headed by an entry give the natural chain unless they say otherwise; changes in a name come on top.
UniProt Q9Y5B0: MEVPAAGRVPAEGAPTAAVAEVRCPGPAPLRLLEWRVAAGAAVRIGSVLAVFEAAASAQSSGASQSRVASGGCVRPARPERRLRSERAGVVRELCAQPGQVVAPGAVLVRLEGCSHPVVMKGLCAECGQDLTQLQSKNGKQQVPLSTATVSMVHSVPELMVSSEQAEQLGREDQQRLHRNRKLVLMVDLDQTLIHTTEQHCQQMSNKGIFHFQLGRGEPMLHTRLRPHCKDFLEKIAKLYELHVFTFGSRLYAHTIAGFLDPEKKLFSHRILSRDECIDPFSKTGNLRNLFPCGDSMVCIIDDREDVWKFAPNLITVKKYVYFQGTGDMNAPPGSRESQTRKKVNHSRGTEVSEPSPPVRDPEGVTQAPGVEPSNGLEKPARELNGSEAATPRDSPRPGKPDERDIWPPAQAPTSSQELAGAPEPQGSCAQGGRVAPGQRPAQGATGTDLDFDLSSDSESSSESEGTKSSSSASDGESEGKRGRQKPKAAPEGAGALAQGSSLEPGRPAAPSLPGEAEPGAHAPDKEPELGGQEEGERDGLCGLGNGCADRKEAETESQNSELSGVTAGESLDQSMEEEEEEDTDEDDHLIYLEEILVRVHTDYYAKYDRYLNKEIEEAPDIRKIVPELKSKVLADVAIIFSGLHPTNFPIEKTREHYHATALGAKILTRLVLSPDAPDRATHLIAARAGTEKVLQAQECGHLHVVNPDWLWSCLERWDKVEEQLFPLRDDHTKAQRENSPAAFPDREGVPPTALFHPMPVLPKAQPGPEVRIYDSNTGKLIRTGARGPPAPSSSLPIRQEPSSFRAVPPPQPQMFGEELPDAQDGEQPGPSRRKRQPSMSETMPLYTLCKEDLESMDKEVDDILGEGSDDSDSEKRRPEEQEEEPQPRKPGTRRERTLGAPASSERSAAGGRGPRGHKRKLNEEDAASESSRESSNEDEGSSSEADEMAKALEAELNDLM
UniProt Q96FN4: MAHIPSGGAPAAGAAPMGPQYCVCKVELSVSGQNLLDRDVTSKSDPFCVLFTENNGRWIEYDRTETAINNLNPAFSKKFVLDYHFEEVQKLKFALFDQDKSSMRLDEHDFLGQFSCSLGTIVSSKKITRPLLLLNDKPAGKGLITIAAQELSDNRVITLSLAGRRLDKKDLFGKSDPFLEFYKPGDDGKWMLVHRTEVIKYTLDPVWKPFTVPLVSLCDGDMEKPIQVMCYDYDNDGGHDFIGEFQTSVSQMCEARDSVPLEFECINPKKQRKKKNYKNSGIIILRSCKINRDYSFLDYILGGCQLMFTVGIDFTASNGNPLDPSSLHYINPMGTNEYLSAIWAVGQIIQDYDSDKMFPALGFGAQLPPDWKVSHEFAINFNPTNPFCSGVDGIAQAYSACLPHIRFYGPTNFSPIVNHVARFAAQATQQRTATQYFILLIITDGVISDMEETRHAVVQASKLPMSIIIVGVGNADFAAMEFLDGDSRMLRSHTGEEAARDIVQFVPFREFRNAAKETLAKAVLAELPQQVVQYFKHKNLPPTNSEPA
UniProt O75534: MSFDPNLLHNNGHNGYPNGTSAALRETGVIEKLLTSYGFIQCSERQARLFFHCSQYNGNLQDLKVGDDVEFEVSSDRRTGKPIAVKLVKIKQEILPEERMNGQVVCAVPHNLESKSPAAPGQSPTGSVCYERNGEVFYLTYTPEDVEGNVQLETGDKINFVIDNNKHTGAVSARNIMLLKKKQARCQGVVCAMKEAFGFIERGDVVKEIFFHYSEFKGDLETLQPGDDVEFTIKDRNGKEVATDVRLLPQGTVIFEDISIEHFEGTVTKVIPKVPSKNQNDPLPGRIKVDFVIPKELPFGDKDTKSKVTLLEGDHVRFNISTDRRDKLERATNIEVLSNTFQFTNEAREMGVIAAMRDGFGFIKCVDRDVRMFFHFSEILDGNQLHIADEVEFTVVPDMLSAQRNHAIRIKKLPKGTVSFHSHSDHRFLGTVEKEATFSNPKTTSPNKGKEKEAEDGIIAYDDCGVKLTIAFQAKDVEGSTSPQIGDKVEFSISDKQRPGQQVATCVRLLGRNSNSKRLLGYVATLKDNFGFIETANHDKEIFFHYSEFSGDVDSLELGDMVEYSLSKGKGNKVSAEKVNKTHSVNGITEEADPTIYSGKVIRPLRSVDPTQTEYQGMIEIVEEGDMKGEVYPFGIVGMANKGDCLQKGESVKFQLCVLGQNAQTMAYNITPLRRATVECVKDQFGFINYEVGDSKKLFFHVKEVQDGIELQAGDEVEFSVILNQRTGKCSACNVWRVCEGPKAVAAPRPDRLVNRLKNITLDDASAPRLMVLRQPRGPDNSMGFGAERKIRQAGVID
UniProt Q9UKF6: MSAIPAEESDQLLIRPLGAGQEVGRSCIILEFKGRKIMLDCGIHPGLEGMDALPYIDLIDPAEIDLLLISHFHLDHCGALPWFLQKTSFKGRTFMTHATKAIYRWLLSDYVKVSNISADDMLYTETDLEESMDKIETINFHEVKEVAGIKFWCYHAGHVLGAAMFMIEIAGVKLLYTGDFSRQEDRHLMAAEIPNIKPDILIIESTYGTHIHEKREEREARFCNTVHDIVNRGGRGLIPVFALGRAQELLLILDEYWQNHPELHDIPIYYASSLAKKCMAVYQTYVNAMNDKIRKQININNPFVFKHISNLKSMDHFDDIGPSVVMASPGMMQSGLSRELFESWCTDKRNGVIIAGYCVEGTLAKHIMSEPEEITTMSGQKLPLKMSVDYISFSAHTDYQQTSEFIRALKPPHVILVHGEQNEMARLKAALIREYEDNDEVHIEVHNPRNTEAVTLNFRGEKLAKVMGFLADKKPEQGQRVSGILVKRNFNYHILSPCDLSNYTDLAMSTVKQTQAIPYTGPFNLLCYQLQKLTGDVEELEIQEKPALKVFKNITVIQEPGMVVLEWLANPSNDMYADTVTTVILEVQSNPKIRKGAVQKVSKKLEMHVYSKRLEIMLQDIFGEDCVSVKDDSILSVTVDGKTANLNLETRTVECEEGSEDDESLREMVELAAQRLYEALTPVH
UniProt Q49B96: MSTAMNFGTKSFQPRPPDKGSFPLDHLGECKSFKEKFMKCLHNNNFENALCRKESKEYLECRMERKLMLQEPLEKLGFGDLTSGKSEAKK
UniProt P55060: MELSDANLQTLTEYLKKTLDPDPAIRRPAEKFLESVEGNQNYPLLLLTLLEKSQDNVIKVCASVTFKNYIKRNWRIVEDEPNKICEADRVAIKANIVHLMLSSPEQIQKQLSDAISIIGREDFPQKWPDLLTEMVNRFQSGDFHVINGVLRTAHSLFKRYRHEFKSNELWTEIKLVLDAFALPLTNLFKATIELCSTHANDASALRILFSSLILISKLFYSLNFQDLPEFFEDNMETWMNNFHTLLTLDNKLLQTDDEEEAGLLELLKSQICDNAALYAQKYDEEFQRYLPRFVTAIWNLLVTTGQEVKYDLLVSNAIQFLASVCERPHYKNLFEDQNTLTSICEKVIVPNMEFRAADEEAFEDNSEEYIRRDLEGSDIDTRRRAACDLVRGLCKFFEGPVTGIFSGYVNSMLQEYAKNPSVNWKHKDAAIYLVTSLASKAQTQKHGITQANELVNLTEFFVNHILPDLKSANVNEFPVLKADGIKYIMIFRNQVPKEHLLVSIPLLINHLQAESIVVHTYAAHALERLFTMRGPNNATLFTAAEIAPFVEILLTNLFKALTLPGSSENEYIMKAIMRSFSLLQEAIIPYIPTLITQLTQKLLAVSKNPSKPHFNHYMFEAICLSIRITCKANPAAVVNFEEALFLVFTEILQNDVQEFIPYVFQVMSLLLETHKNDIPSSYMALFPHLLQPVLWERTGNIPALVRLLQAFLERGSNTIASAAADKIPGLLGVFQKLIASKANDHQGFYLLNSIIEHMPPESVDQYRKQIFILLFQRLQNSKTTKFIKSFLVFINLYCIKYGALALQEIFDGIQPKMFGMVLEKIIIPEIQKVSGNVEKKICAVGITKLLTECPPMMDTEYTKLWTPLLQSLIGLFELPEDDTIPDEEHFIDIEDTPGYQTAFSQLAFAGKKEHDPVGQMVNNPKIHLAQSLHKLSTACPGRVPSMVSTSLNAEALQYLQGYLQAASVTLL
UniProt Q9P2I0: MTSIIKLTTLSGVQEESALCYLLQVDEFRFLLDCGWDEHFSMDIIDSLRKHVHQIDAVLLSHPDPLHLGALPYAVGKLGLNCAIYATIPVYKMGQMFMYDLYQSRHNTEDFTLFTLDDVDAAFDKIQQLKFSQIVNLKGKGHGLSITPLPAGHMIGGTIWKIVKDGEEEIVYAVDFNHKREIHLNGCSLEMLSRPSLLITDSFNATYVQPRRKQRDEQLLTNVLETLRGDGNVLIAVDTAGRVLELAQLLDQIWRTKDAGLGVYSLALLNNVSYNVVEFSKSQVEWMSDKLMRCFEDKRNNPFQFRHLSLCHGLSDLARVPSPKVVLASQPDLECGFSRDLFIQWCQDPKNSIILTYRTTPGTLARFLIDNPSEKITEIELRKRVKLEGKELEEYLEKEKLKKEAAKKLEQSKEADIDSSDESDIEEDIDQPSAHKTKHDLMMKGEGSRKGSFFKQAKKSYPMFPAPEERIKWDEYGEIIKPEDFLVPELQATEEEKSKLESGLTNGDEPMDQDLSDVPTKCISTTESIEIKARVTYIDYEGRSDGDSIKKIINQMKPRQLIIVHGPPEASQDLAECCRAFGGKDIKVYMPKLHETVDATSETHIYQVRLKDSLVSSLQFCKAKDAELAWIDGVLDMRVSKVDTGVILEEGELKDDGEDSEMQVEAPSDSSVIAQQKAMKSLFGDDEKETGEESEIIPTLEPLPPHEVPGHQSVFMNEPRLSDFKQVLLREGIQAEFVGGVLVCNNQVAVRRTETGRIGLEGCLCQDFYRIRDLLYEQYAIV
UniProt O75390: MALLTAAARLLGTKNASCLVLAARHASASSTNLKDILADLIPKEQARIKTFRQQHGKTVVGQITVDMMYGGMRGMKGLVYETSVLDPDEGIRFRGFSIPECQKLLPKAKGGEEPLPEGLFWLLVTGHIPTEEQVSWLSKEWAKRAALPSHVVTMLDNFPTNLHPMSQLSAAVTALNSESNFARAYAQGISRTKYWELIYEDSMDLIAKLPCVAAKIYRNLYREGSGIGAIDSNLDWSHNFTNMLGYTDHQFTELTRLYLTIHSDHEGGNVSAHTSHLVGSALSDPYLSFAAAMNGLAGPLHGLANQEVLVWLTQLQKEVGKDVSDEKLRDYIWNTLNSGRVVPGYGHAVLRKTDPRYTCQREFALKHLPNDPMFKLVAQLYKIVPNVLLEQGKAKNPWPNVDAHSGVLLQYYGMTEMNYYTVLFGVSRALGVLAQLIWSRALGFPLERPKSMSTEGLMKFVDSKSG
UniProt P21291: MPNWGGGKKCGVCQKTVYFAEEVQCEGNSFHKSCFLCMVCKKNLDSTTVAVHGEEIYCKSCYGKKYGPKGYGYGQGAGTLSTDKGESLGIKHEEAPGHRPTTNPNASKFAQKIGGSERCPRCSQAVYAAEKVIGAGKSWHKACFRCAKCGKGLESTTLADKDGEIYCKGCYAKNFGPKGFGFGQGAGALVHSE
UniProt P35222, whole entry, looked up: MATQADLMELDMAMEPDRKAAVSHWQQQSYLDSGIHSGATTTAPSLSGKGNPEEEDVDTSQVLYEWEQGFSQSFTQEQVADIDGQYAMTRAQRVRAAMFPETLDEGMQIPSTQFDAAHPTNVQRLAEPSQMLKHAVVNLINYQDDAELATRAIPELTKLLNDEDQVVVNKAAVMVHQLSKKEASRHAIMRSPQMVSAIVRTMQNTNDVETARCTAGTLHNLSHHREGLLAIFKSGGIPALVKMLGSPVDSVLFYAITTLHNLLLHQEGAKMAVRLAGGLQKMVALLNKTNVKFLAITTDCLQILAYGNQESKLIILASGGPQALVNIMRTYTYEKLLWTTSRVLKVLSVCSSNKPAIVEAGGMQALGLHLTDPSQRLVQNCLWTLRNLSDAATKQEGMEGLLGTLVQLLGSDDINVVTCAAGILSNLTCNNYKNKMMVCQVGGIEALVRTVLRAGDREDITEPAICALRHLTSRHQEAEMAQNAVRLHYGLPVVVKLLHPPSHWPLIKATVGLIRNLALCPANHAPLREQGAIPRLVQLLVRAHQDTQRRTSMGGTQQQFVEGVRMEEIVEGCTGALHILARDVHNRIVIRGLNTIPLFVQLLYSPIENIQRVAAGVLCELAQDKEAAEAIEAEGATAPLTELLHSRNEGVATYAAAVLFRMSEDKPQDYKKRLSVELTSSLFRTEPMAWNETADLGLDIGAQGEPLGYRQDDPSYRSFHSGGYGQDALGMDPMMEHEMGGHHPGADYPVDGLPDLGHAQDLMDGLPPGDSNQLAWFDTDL
UniProt P46109: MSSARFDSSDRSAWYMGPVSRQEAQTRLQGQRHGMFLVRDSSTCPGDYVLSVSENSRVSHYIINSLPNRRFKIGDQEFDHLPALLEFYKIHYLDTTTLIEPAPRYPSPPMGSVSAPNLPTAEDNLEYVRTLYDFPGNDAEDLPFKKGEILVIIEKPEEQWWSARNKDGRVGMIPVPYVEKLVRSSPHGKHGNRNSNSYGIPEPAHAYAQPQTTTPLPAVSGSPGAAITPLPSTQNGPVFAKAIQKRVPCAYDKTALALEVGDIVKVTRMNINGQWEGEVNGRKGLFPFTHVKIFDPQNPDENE

Compound: CC1Cc2ccccc2N1C(=O)C1CCCN(C1)C(=O)CCl (mixture of isomers) [TRIM25 ligand 11 (diastereomer mixture)]
Assay: probe-labelled cysteine peptide fold change vs DMSO (competition) (log2 fold change); higher = less target engagement (more negative = stronger competition)
Details: THP-1, incubation time: 4 h
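Note: competitive chemoproteomic profiling in live THP-1 cells with an iodoacetamide desthiobiotin (IA-DTB) probe, comparing probe-labelled peptide intensities in compound-treated cells against DMSO-treated controls.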

Row | Target | probe-labelled cysteine peptide fold change (10 µM) | probe-labelled cysteine peptide fold change (50 µM)
1 | CRYBG1_Q9Y4K1_541_SPEAVGSECPSR (UniProt Q9Y4K1) | 0.0881 | -0.136
2 | CPPED1_Q9BRF8_197_HCQHAIVFQHIPLFLESIDEDDDYYFNLSK (UniProt Q9BRF8) | -0.00515 | -0.0291
3 | CRYBG1_Q9Y4K1_594+609_EVQLPTCHSNEPEVVSVASCAPPQEEVLGNEHSHCTAELAAK (UniProt Q9Y4K1) | -0.0918 | -0.248
4 | CTDP1_Q9Y5B0_201_LVLMVDLDQTLIHTTEQHCQQMSNK (UniProt Q9Y5B0) | 0.129 | -0.196
5 | CPNE2_Q96FN4_48_SDPFCVLFTENNGR (UniProt Q96FN4) | -0.0238 | 0.0817
6 | CSDE1_O75534_186_CQGVVCAMK (UniProt O75534) | -0.0611 | -0.156
7 | CST3_P01034_109_TQPNLDNCPFHDQPHLK (UniProt P01034) | -0.0536 | -0.101
8 | CPSF3_Q9UKF6_626_RLEIMLQDIFGEDCVSVK (UniProt Q9UKF6) | -0.0038 | 0.0962
9 | COX19_Q49B96_61_EYLECR (UniProt Q49B96) | 0.00446 | -0.052
10 | CSE1L_P55060_61_VCASVTFK (UniProt P55060) | -0.0773 | 0.131
11 | CPSF2_Q9P2I0_522_CISTTESIEIK (UniProt Q9P2I0) | -0.00754 | -0.113
12 | CSDE1_O75534_129_SPAAPGQSPTGSVCYER (UniProt O75534) | 0.0651 | 0.0584
13 | CPSF2_Q9P2I0_187_EIHLNGCSLEMLSR (UniProt Q9P2I0) | 0.161 | 0.0342
14 | CTNNA1_P35221_438_LIEVANLACSISNNEEGVK (UniProt P35221) | 0.269 | 0.265
15 | CREBBP_Q92793_1212_KYEFSPQTLCCYGK (UniProt Q92793) | -0.0659 | -0.0288
16 | CTBP1_Q13363_54_DVATVAFCDAQSTQEIHEK (UniProt Q13363) | -0.0987 | -0.00903
17 | CORO2A_Q92828_25_ENCYDSVPITR (UniProt Q92828) | -0.13 | -0.135
18 | CORO7_P57737_75_RVAHLGCHSDLVTDLDFSPFDDFLLATGSADR (UniProt P57737) | 0.395 | 0.476

Row | Target | probe-labelled cysteine peptide fold change (10 µM) | probe-labelled cysteine peptide fold change (50 µM)
19 | CORO7_P57737_691_IVWVCDGR (UniProt P57737) | 0.154 | 0.334
20 | CSE1L_P55060_272_SQICDNAALYAQK (UniProt P55060) | 0.394 | 0.0435
21 | CS_O75390_211_LPCVAAK (UniProt O75390) | 0.0113 | 0.0565
22 | CTCF_P49711_356_CSMCDYASVEVSK (UniProt P49711) | -0.0609 | -0.0276
23 | CSRP1_P21291_40_SCFLCMVCK (UniProt P21291) | 0.0125 | 0.144
24 | CTNNB1_P35222_520_NLALCPANHAPLREQGAIPR (UniProt P35222) | -0.269 | 0.0914
25 | CORO6_Q6QEF8_344_CEPIIMTVPR (UniProt Q6QEF8) | 0.0191 | -0.0827
26 | CPSF3_Q9UKF6_223_FCNTVHDIVNR (UniProt Q9UKF6) | -0.0667 | -0.11
27 | CPSF2_Q9P2I0_763_IGLEGCLCQDFYR (UniProt Q9P2I0) | 0.0937 | 0.316
28 | CRKL_P46109_44_DSSTCPGDYVLSVSENSR (UniProt P46109) | 0.0198 | -0.0389
29 | COX17_Q14061_23+24_KPLKPCCACPETK (UniProt Q14061) | -0.386 | -0.745
30 | CRELD1_Q96HD1_229_CSGPEESNCLQCK (UniProt Q96HD1) | 0.0143 | -0.197
31 | CTDP1_Q9Y5B0_277_ILSRDECIDPFSK (UniProt Q9Y5B0) | 0.00948 | -0.128
32 | CTNNB1_P35222_520_NLALCPANHAPLR (UniProt P35222) | -0.176 | 0.273
33 | CSTF3_Q12996_536_FMDLYPCSASELK (UniProt Q12996) | -0.078 | 0.035
34 | CORO1B_Q9BR76_345_KCEPIVMTVPR (UniProt Q9BR76) | -0.102 | -0.0829
35 | CPD_O75976_195_EGDCGFGDGGPSGASGR (UniProt O75976) | 0.275 | 0.183
36 | CRYBG1_Q9Y4K1_1404_ISSVQPICLDSFTGPR (UniProt Q9Y4K1) | 0.199 | -0.0158

2 entries from above, tab-delimited:
Row	Target	probe-labelled cysteine peptide fold change (10 µM)	probe-labelled cysteine peptide fold change (50 µM)
23	CSRP1_P21291_40_SCFLCMVCK (UniProt P21291)	0.0125	0.144
32	CTNNB1_P35222_520_NLALCPANHAPLR (UniProt P35222)	-0.176	0.273
